Test results: US20110003898A1, “MEDICAL GLUES FOR SURGERY COMPRISING BIOACTIVE COMPOUNDS” (Bayer MaterialScience AG, priority 2008, published 2011)
At least one structure is not confirmed: it was looked up by name or label, or the drawing left a doubt.

Assays:
Assay type in all cases: physicochemical
[1] = Pot life (processing time) of adhesive with active ingredient; conditions: 0.45 g PEG 200, 0.55 g aspartate B, 2-5% active ingredient, 4 g prepolymer A; ^2 = active substance in suspension
Source text: (§1) 0.45 g of PEG 200 were mixed thoroughly with 0.55 g of aspartate B and 2-5% of the active ingredient. The solution was stirred with 4 g of prepolymer A and applied to the tissue. We tested for processing time and the effect of adhesion to meat as well as the formation of a film on the skin.

[2] = Film formation on the skin, cure time to disappearance of surface tackiness; conditions: adhesive with 2-5% active ingredient; ^2 = suspension
Source text: as §1

[3] = Active substance release from adhesive film into physiological saline (HPLC-UV/MS); conditions: 250 mg active substance in film, 37° C., 2 h; for Release: 5x5 cm section (0.5 g) in 20 g physiological saline; for Amount of active substance released [%]: physiological saline
Protocol: For the quantitative determination of the active substance release, a transparent film with a thickness of 200 ? was produced by knife coating from 4 g of prepolymer A, 0.45 g of PEG 200, […] A section measuring 5×5 cm (weight: 0.5 g) was cut from this film, placed in a petri dish, covered with 20 g of physiological saline solution, and stored in an incubator at 37° C. for 2 h. The quantitative determination was carried out via HPLC-UV/MS (HPLC column: Inertsil ODS 3 5 □ 120 A 125 mm*2.1 mm 60° C.; eluent A: 25 mmol ammonium acetate in water, eluent B: 25 mmol ammonium acetate in methanol).

CCCCC1C(=O)N(c2ccccc2)N(c2ccccc2)C1=O [phenylbutazone]
Pot life [1]: 1 min 30 s
Film formation cure time [min to disappearance of surface tackiness] [2]: 8 min
Release [3]: 355 mg/L
Amount of active substance released [%] [3]: 28.4%

O=C1OC(CN2CCOCC2)CN1/N=C/c1ccc([N+](=O)[O-])o1 (stereo not drawn) [furaldatone]
Pot life [1]: 1 min 30 s

CN(C)[C@@H]1C(O)=C(C(N)=O)C(=O)[C@@]2(O)C(O)=C3C(=O)c4c(O)cccc4[C@@](C)(O)[C@H]3C[C@@H]12 [tetracycline]
Pot life [1]: 1 min 15 s
Film formation cure time [min to disappearance of surface tackiness] [2]: 4 min
Release [3]: 547 mg/L
Amount of active substance released [%] [3]: 43.8%
